This is an account of results in PubChem BioAssay AID1487 (National Center for Advancing Translational Sciences (NCATS), 2009).

The nature of this assay: qHTS Assay for Modulators of Lamin A Splicing. The settings on record: HeLa LMNA splicing GFP/RFP minigene ratio, 48 h. A digest of the protocol:
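Read-out is the ratio of GFP to DsRed2 object intensity, acquired by 488 nm laser-scanning cytometry on HeLa lamin A-EGFP minigene reporter cells. Compound incubation 48 hrs at 37 °C in Opti-MEM with 2% FBS; DMSO 0.5% final.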

Setting [1] is: measured here: GFP splicing reporter channel.
Setting [2] is: measured here: RFP viability control channel.

“And” between values parts separate entries of the source, which are not always exact repeats. Identical values can stand only once. The list shows a part of the results. These are further read-outs of the screen, such as a control signal, another cell line or another target. No call is given for them. The list favours compounds with an active or inconclusive main result. The note in brackets gives the kind of curve behind each potency; many fits are weak.

What is called AC50 is the concentration giving half of the maximal activity seen. For the compound `Cc1cccc(-n2nc(C)c3c2NC2=C(C(=O)CCC2)C3c2ccccn2)c1` (configuration not stated), the AC50 under setting [1] is 0.00794 µM [rising, full curve, poor fit].

As to `O=C(NCc1cccnc1)c1ccc(-c2cc3ccccc3oc2=O)cc1`, under setting [1], the AC50 is 12.6 µM [rising, partial curve]. Same read-out and setting: the value for `O=C(NN=C1CCN(Cc2ccccc2)CC1)c1cc2ccccc2cc1O` was 31.6 µM [rising, single point]. On to `Oc1c(Cl)cc(Cl)c2cccnc12`, for which the AC50 runs as follows: under setting [1], 0.355 µM [falling, full curve]; under setting [2], 6.31 µM [falling, partial curve, poor fit] and 3.98 µM [falling, full curve, poor fit]. As for `CC(=O)c1sc(Nc2nc3ccc(F)cc3s2)nc1C`, the AC50 is 10 µM [rising, partial curve] under setting [1] and 14.1 µM [rising, single point] under setting [2]. `O=C(NCc1ccccc1)C(=O)NCC1COc2ccccc2O1` (configuration not stated): the AC50 under setting [2] was 10 µM [rising, partial curve]. As for `Cc1ccc2c(c1)N(C(=O)Nc1ccc(Br)cc1F)CCO2`, the AC50 under setting [1] is 3.55 µM [falling, partial curve] and the AC50 under setting [2] was 0.316 µM [falling, partial curve]. As for `CC(NC(=O)/C(C#N)=C/c1ccc(Cl)c([N+](=O)[O-])c1)c1ccccc1` (configuration not stated), the AC50 runs as follows: under setting [1], 11.2 µM [falling, partial curve]; under setting [2], 14.1 µM [falling, partial curve].

Regarding `CCOC(=O)N1CCC(N(C(=O)Nc2ccc(Cl)c(Cl)c2)C(C)CC)CC1` (configuration not stated), the AC50 under setting [2] is 31.6 µM [rising, single point]. As to `COc1ccccc1N1CCN(CCCNc2c(C)c(=O)n(C)c(=O)n2C)CC1`, the AC50 under setting [1] is 0.0224 µM [falling, full curve, poor fit].

Consider `CC(C)(C)OC(=O)C(Cc1ccc(OC(C)(C)C)cc1)NC(=O)CNC(=O)OCc1ccccc1` (configuration not stated), for which the AC50 is 17.8 µM [rising, single point] under setting [1] and 25.1 µM [rising, partial curve] under setting [2].

Consider `COc1ccc(CCNC(=O)c2cnn(-c3cccc(C)c3)c2C2CCNCC2)cc1OC`, for which the AC50 under setting [2] was 0.00501 µM [falling, full curve, poor fit]. `COc1ccc(CNc2oc(COc3ccc(Cl)cc3)nc2C#N)cc1`: the AC50 runs as follows: under setting [1], 11.2 µM [rising, partial curve]; under setting [2], 22.4 µM [rising, single point].

Turning to `O=C(c1ccccc1)N1CCC(c2nc3ccccc3o2)CC1`, the AC50 under setting [2] is 3.55 µM [falling, partial curve]. Take `Cc1ccc(-c2nc(CSc3nc4ccccc4c(=O)n3CCO)cs2)cc1`: the AC50 under setting [1] was 35.5 µM [rising, single point].

Consider `COc1ccc2c(c1)CCN(C(=O)CCl)C2C1C(=O)CCCC1=O` (configuration not stated), for which the AC50 under setting [2] was 11.2 µM [falling, single point]. On the same count and under the same terms, the value for `O=C(N/N=C/c1cc(Br)c(O)c(Br)c1)c1cccc(C(F)(F)F)c1` was 14.1 µM [rising, partial curve]. `CC(=O)c1ccc(NC(=O)CSc2nnc(-c3ccncc3)n2-c2ccccc2)cc1`: under setting [1], the half-maximal activity concentration (AC50) is 0.0316 µM [falling, full curve, poor fit]. Same read-out and setting: under `CCOC(=O)c1nn(-c2ccccc2)c(C#N)c1NC(=O)c1nn(CC)cc1Br` stands 0.794 µM [rising, partial curve, poor fit]. Take `COc1ccc(OC)c(CN2CCC(C(=O)N(C)CCc3ccc(OC)c(OC)c3)CC2)c1`: the AC50 under setting [2] is 28.2 µM [falling, partial curve].

Turning to `N#Cc1cnn2ccc(-c3cc(N4CCOCC4)ccc3[N+](=O)[O-])nc12`, the AC50 under setting [1] was 0.501 µM [rising, partial curve, poor fit].

Consider `N#Cc1nc(-c2ccc(OCc3ccccc3Cl)cc2)oc1NCCCn1ccnc1`, for which the AC50 under setting [2] was 35.5 µM [falling, single point]. Still for that read-out and setting: under `Cc1c(CCOC(=O)C23CC4CC(CC(C)(C4)C2)C3)sc[n+]1CC(=O)c1ccccc1` stands 35.5 µM [rising, single point]; under `CC(=O)Nc1ccc(NC(=O)c2csnn2)cc1`, 0.0631 µM [falling, full curve, poor fit].

Turning to `COc1ccc(CNC(=O)COC(=O)c2n[nH]c3ccccc23)cc1`, under setting [1], the AC50 is 17.8 µM [rising, single point]. In the case of `O=C(C1CC1)N1CCc2cc(S(=O)(=O)N(CCO)Cc3ccccc3)ccc21`, the AC50 under setting [2] was 35.5 µM [rising, single point]. In the case of `CCOC(=O)N1CCC(NC(=O)c2sc(-n3cccc3)nc2C)CC1`, under setting [2], the AC50 is 35.5 µM [rising, single point]. As for `COc1ccc(C(C[N+](=O)[O-])C2(c3ccc(OC)c(OC)c3)C(=O)c3ccccc3C2=O)cc1` (configuration not stated), the AC50 under setting [2] was 15.8 µM [rising, partial curve]. Same read-out and setting: under `COc1cccc(C2=CC(c3cccc(OC)c3OC(F)F)n3nnnc3N2)c1` (configuration not stated) stands 17.8 µM [rising, single point]. `COc1ccc(Nc2cc(C)nc3ccccc23)cc1`: the AC50 under setting [2] was 1.58 µM [rising, full curve]. Same read-out and setting: under `Nn1cc(-c2ccccc2)nc1SCC(=O)N1CCN(S(=O)(=O)c2ccc3ccccc3c2)CC1` stands 35.5 µM [rising, single point].

In the case of `Cc1ccc(NC(=O)CSc2nnc(Cc3cccn3C)n2-c2ccc(F)cc2)cc1`, under setting [2], the AC50 was 0.00447 µM [rising, full curve, poor fit].

As to `CCCCc1nn2c(=O)cc(COC(=O)c3cccc(NC(=O)c4cccs4)c3)nc2s1`, the AC50 reads like this: under setting [1], 5.62 µM [rising, partial curve, poor fit]; under setting [2], 22.4 µM [rising, partial curve, poor fit]. Consider `CCc1ccc(N2C(=O)CC(N3CCN(Cc4ccc5c(c4)OCO5)CC3)C2=O)cc1` (configuration not stated), for which the AC50 under setting [1] was 8.91 µM [rising, partial curve, poor fit]. On to `Cc1cccc(/C=C/C(=O)c2cc(Br)ccc(=O)c2O)c1`, for which the AC50 under setting [2] is 20 µM [rising, single point]. As for `O=[N+]([O-])c1ccc(S(=O)(=O)Nc2ccc(-c3csc(-c4ccccc4)n3)cc2)cc1`, the AC50 is, setting by setting: under setting [1], 25.1 µM [falling, single point]; under setting [2], 35.5 µM [falling, single point]. Take `NC(=O)c1c(NC(=O)CCCC(=O)O)sc2c1CCCCCC2`: the AC50 is 1.12 µM [falling, partial curve, poor fit] under setting [1] and 1.26 µM [falling, full curve, poor fit] under setting [2].

`O=C(O)c1cn(Cc2ccccc2)c2ccccc2c1=O`: the AC50 was 11.2 µM [rising, partial curve, poor fit] under setting [1] and 11.2 µM [rising, single point] under setting [2]. Consider `COc1ccc(-n2c(C)cc(C(=O)COC(=O)c3cc(NC(=O)c4cccs4)c(OC)c(OC)c3)c2C)cc1`, for which the AC50 was 10 µM [rising, partial curve] under setting [1] and 17.8 µM [rising, partial curve, poor fit] under setting [2]. `COc1ccccc1/C=C/C=N/NC(=O)Cc1cccs1`: the AC50 under setting [2] is 28.2 µM [rising, single point]. `Cc1c(Cl)cccc1-n1ncc(C(=O)NC2CCCC2)c1C1CCN(C(=O)OC(C)(C)C)CC1`: the AC50 by setting is: under setting [1], 3.98 µM [falling, full curve, poor fit]; under setting [2], 6.31 µM [falling, partial curve, poor fit].

Turning to `CC(C)(C)NC(=O)NC(=O)CN1CCN(Cc2ccccc2)CC1`, the AC50 under setting [2] is 0.0398 µM [falling, full curve, poor fit]. As to `Cc1cc(C)nc(NCC(O)CNc2ccccc2Cl)n1` (configuration not stated), the AC50 is 14.1 µM [rising, single point] under setting [1] and 31.6 µM [rising, single point] under setting [2].

Consider `O=Cc1cc2ccccc2nc1SCc1ccc(Cl)cc1`, for which the AC50 is 35.5 µM [rising, single point] under setting [1] and 20 µM [rising, single point] under setting [2]. Regarding `O=c1oc2ccccc2c(NCc2ccccc2)c1[N+](=O)[O-]`, the AC50 under setting [2] was 25.1 µM [rising, single point].

On to `Cc1ccc(S(=O)(=O)N2CCCC2C(=O)Nc2nc3c(s2)CCCC3)cc1` (configuration not stated), for which the AC50 under setting [2] is 20 µM [rising, partial curve, poor fit]. `COc1ccc(Oc2ncc3nc(-c4ccc(Cl)cc4)c(=O)n(C[C@H]4CCCO4)c3n2)cc1`: the AC50 under setting [1] is 11.2 µM [falling, partial curve].

Turning to `CC1=NS(=O)(=O)c2cc(Cl)ccc2N1`, the AC50 by setting is: under setting [1], 2.24 nM [falling, full curve, poor fit] and 1.78 µM [falling, partial curve, poor fit]; under setting [2], 0.112 µM [rising, full curve, poor fit]. With `COc1cccc(NC(=O)CSc2nc(=O)[nH]c3c2CCCC3)c1`, the AC50 under setting [2] is 0.00316 µM [falling, full curve, poor fit]. With `COc1ccccc1CNCC(O)Cn1c2ccccc2c2ccccc21` (configuration not stated), the AC50 under setting [1] is 35.5 µM [falling, single point] and the AC50 under setting [2] was 35.5 µM [falling, single point]. With `Cc1ccc(-n2nnnc2SCC(=O)NCCC2=CCCCC2)c(C)c1`, under setting [2], the AC50 is 35.5 µM [rising, single point]. In the case of `O=c1c2cccc3c2c(nn1CN1CCOCC1)-c1ccccc1-3`, the AC50 under setting [1] is 31.6 µM [rising, single point]. As for `COC(=O)c1cc(OC)c(OC)cc1NCC(=O)Nc1cccc(C(F)(F)F)c1`, the AC50 under setting [2] was 20 µM [rising, single point]. Regarding `O=C(CSc1ccc2ccccc2c1Br)Nc1cccc(S(=O)(=O)NC2=NCCCCC2)c1`, under setting [2], the AC50 was 22.4 µM [rising, partial curve].

For `O=S(=O)(N/N=C/c1cn(Cc2ccccc2)c2ccccc12)c1ccccc1`, the AC50 under setting [1] was 15.8 µM [falling, single point] and the AC50 under setting [2] is 22.4 µM [falling, single point].
